Source: PMC12494878
Results are given in words; binding and its absence hold for the method and conditions named. Some results given as binding are weak or reduced against the parent protein; the word gives no strength. Tags and fused reporters may be left off the sequences shown.

Biological target: 1M3U self-assembling mutant (D157L/E158L/D161L) fused to YFP (UniProt P31057)
Test: cryo-electron tomography of cells (with TEM and CLEM of cell sections); yeast cells expressing the YFP-tagged mutant; cryo-FIB milled lamellae, tilt series at 300 kV; fixed sections for TEM and CLEM

B1: 1M3U self-assembling mutant (D157L/E158L/D161L) fused to YFP (protein, UniProt P31057 1-264)
chain: MKPTTISLLQKYKQEKKRFATITAYDYSFAKLFADEGLNVMLVGDSLGMTVQGHDSTLPVTVADIAYHTAAVRRGAPNCLLLADLPFMAYATPEQAFENAATVMRAGANMVKIEGGEWLVETVQMLTERAVPVCGHLGLTPQSVNIFGGYKVQGRGLLAGLQLLSDALALEAAGAQLLVLECVPVELAKRITEALAIPVIGIGAGNVTDGQILVMHDAFGITGGHIPKFAKNFLAETGDIRAAVRQYMAEVESGVYPGEEHSFH
- binding: binds
